## Melanoma cell counts after drug treatment

Values as published with doi:10.1371/journal.pone.0140310, rounded.

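Human melanoma cells were exposed to two drugs together for 72 h in 1,536-well plates and read by automated microscopy after fixing and staining. The read-out is cell count (nuclei) in % of the DMSO control; lower values mean stronger growth inhibition or killing. Concentrations were fixed for each drug; these are the higher of two levels. These are primary screening values without error estimates.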 An unselected part of the screen is shown.

Drugs:
SU6656: CN(C)S(=O)(=O)c1ccc2c(c1)/C(=C/c1cc3c([nH]1)CCCC3)C(=O)N2 at 2 µM
VX-702: NC(=O)c1ccc(N(C(N)=O)c2c(F)cccc2F)nc1-c1ccc(F)cc1F at 2 µM
midostaurin: CO[C@@H]1[C@H](N(C)C(=O)c2ccccc2)C[C@H]2O[C@]1(C)n1c3ccccc3c3c4c(c5c6ccccc6n2c5c31)C(=O)NC4 at 0.4 µM
selumetinib: Cn1cnc2c(F)c(Nc3ccc(Br)cc3Cl)c(C(=O)NOCCO)cc21 at 0.075 µM
sunitinib: CCN(CC)CCNC(=O)c1c(C)[nH]c(/C=C2\C(=O)Nc3ccc(F)cc32)c1C at 2 µM
CHIR-265: Cn1c(Nc2ccc(C(F)(F)F)cc2)nc2cc(Oc3ccnc(-c4ncc(C(F)(F)F)[nH]4)c3)ccc21 at 0.4 µM
ruxolitinib: N#CC[C@H](C1CCCC1)n1cc(-c2ncnc3[nH]ccc23)cn1 at 5 µM
MK-1775: C=CCn1c(=O)c2cnc(Nc3ccc(N4CCN(C)CC4)cc3)nc2n1-c1cccc(C(C)(C)O)n1 at 0.1 µM
U73122: COc1ccc2c(c1)CCC1C2CCC2(C)C(NCCCCCCN3C(=O)C=CC3=O)CCC12 (centres undefined) at 2 µM
OSI-906: C[C@]1(O)C[C@@H](c2nc(-c3ccc4ccc(-c5ccccc5)nc4c3)c3c(N)nccn32)C1 at 2 µM
nilutamide: CC1(C)NC(=O)N(c2ccc([N+](=O)[O-])c(C(F)(F)F)c2)C1=O at 5 µM
fingolimod: CCCCCCCCc1ccc(CCC(N)(CO)CO)cc1 at 10 µM
GSK650394: O=C(O)c1ccc(-c2c[nH]c3ncc(-c4ccccc4)cc23)cc1C1CCCC1 at 0.8 µM

{"combination": "MK-1775 and OSI-906", "COLO 829": 73.9, "COLO 800": 55.1, "COLO 792": 73.6, "C32": 96.9}
{"combination": "U73122 and midostaurin", "COLO 829": 69.6, "COLO 800": 20.8, "COLO 792": 55.1, "C32": 54.8}
{"combination": "midostaurin and fingolimod", "COLO 829": 30.6, "COLO 800": 23.4, "COLO 792": 2.0, "C32": 0.7}
{"combination": "fingolimod and nilutamide", "COLO 829": 36.5, "COLO 800": 11.3, "COLO 792": 2.3, "C32": 1.6}
{"combination": "OSI-906 and midostaurin", "COLO 829": 70.8, "COLO 800": 22.9, "COLO 792": 85.3, "C32": 84.9}
{"combination": "fingolimod and SU6656", "COLO 829": 34.7, "COLO 800": 8.6, "COLO 792": 2.9, "C32": 2.8}
{"combination": "nilutamide and VX-702", "COLO 829": 102, "COLO 800": 7.9, "COLO 792": 94.9, "C32": 102}
{"combination": "U73122 and sunitinib", "COLO 829": 130, "COLO 800": 47.8, "COLO 792": 52.5, "C32": 45.0}
{"combination": "MK-1775 and sunitinib", "COLO 829": 99.5, "COLO 800": 76.5, "COLO 792": 39.2, "C32": 66.8}
{"combination": "SU6656 and VX-702", "COLO 829": 65.3, "COLO 800": 42.3, "COLO 792": 74.5, "C32": 91.4}
{"combination": "GSK650394 and sunitinib", "COLO 829": 99.6, "COLO 800": 64.7, "COLO 792": 38.8, "C32": 74.3}
{"combination": "SU6656 and sunitinib", "COLO 829": 106, "COLO 800": 50.6, "COLO 792": 42.6, "C32": 77.8}
{"combination": "SU6656 and U73122", "COLO 829": 95.9, "COLO 800": 59.7, "COLO 792": 79.5, "C32": 92.8}
{"combination": "ruxolitinib and SU6656", "COLO 829": 89.7, "COLO 800": 82.2, "COLO 792": 74.3, "C32": 77.4}
{"combination": "GSK650394 and ruxolitinib", "COLO 829": 85.8, "COLO 800": 63.4, "COLO 792": 102, "C32": 99.1}
{"combination": "selumetinib and SU6656", "COLO 829": 83.0, "COLO 800": 67.7, "COLO 792": 46.0, "C32": 78.8}
{"combination": "midostaurin and ruxolitinib", "COLO 829": 68.8, "COLO 800": 20.9, "COLO 792": 54.3, "C32": 79.3}
{"combination": "CHIR-265 and selumetinib", "COLO 829": 31.7, "COLO 800": 56.9, "COLO 792": 16.1, "C32": 28.7}
{"combination": "sunitinib and CHIR-265", "COLO 829": 70.0, "COLO 800": 49.0, "COLO 792": 23.9, "C32": 36.6}
{"combination": "U73122 and nilutamide", "COLO 829": 93.5, "COLO 800": 87.2, "COLO 792": 115, "C32": 90.0}
{"combination": "sunitinib and midostaurin", "COLO 829": 86.0, "COLO 800": 34.7, "COLO 792": 59.2, "C32": 67.8}
{"combination": "ruxolitinib and nilutamide", "COLO 829": 112, "COLO 800": 108, "COLO 792": 72.1, "C32": 80.8}
{"combination": "CHIR-265 and OSI-906", "COLO 829": 55.5, "COLO 800": 36.1, "COLO 792": 25.9, "C32": 55.1}
{"combination": "GSK650394 and VX-702", "COLO 829": 111, "COLO 800": 78.2, "COLO 792": 103, "C32": 107}
{"combination": "nilutamide and OSI-906", "COLO 829": 102, "COLO 800": 65.3, "COLO 792": 90.1, "C32": 96.2}
{"combination": "selumetinib and VX-702", "COLO 829": 92.4, "COLO 800": 81.6, "COLO 792": 74.0, "C32": 75.4}
{"combination": "OSI-906 and SU6656", "COLO 829": 68.0, "COLO 800": 26.5, "COLO 792": 63.5, "C32": 68.8}
{"combination": "MK-1775 and ruxolitinib", "COLO 829": 89.9, "COLO 800": 59.7, "COLO 792": 58.7, "C32": 72.1}
{"combination": "ruxolitinib and CHIR-265", "COLO 829": 71.7, "COLO 800": 170, "COLO 792": 18.8, "C32": 80.9}
{"combination": "VX-702 and fingolimod", "COLO 829": 26.4, "COLO 800": 15.4, "COLO 792": 1.5, "C32": 7.3}
{"combination": "selumetinib and midostaurin", "COLO 829": 89.2, "COLO 800": 44.9, "COLO 792": 58.5, "C32": 76.6}
{"combination": "GSK650394 and U73122", "COLO 829": 73.7, "COLO 800": 90.5, "COLO 792": 97.5, "C32": 53.0}
{"combination": "GSK650394 and fingolimod", "COLO 829": 37.2, "COLO 800": 44.1, "COLO 792": 1.9, "C32": 16.3}
{"combination": "GSK650394 and OSI-906", "COLO 829": 87.7, "COLO 800": 62.4, "COLO 792": 139, "C32": 110}

Once more, the final 4:

{"combination": "selumetinib and midostaurin", "COLO 829": 89.2, "COLO 800": 44.9, "COLO 792": 58.5, "C32": 76.6}
{"combination": "GSK650394 and U73122", "COLO 829": 73.7, "COLO 800": 90.5, "COLO 792": 97.5, "C32": 53.0}
{"combination": "GSK650394 and fingolimod", "COLO 829": 37.2, "COLO 800": 44.1, "COLO 792": 1.9, "C32": 16.3}
{"combination": "GSK650394 and OSI-906", "COLO 829": 87.7, "COLO 800": 62.4, "COLO 792": 139, "C32": 110}